Measured values reported in the supplement of paper PMC10849652.
The other results are listed elsewhere or left out.

Amino acid sequences for entries named in this document (tags omitted). A change or cut given only in a name is not applied to a line headed by its entry.
UniProt Q86TA1: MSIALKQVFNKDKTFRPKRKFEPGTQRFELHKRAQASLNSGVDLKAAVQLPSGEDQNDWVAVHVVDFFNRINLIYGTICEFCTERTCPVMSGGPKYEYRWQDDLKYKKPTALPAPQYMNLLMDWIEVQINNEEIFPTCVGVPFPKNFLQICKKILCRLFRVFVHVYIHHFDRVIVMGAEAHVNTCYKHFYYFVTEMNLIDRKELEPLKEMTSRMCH
UniProt P40692: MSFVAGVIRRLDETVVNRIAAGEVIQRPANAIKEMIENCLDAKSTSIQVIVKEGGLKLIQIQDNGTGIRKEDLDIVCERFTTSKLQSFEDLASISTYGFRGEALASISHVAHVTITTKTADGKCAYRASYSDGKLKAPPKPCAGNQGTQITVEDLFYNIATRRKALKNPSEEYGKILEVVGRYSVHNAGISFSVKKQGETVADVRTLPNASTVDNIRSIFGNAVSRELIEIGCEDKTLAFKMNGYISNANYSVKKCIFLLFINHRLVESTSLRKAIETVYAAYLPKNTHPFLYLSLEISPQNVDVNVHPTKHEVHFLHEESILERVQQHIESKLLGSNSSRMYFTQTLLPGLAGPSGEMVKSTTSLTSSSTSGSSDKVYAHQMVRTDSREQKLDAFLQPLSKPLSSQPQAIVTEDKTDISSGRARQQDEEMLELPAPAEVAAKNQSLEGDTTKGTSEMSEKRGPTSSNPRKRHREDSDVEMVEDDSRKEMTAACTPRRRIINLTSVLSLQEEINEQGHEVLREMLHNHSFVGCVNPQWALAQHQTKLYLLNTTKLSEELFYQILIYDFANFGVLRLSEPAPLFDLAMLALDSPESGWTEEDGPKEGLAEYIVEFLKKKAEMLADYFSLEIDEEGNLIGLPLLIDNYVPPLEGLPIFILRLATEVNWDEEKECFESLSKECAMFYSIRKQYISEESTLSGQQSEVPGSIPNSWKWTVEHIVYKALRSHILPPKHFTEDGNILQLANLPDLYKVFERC
UniProt P55197: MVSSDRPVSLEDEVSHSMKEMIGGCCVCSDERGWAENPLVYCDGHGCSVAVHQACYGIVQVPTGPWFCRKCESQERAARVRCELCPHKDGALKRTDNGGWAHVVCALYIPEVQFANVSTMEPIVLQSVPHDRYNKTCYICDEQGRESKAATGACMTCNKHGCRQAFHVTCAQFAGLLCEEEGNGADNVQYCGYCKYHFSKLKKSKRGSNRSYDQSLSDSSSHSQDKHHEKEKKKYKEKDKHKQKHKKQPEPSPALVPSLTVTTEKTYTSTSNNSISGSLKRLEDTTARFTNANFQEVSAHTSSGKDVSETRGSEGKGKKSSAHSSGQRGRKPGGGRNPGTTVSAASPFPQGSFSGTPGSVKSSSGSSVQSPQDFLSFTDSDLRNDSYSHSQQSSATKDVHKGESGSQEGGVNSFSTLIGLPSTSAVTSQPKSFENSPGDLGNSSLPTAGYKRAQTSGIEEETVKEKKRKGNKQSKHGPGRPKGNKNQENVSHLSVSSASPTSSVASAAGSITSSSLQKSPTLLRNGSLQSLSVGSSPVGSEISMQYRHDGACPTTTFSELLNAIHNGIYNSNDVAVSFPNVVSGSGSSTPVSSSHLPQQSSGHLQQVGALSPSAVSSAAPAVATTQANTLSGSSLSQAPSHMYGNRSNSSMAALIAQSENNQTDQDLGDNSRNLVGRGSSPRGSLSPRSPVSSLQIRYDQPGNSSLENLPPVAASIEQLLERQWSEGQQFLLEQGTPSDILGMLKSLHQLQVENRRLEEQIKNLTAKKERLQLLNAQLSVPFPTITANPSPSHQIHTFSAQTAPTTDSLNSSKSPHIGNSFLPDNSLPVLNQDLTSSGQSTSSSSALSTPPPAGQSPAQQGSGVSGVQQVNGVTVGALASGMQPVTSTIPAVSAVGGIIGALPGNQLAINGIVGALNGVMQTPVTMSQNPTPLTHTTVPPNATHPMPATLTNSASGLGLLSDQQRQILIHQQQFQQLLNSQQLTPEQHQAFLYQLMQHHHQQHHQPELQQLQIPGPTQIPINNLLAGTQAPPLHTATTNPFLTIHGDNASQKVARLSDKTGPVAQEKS
UniProt Q13064: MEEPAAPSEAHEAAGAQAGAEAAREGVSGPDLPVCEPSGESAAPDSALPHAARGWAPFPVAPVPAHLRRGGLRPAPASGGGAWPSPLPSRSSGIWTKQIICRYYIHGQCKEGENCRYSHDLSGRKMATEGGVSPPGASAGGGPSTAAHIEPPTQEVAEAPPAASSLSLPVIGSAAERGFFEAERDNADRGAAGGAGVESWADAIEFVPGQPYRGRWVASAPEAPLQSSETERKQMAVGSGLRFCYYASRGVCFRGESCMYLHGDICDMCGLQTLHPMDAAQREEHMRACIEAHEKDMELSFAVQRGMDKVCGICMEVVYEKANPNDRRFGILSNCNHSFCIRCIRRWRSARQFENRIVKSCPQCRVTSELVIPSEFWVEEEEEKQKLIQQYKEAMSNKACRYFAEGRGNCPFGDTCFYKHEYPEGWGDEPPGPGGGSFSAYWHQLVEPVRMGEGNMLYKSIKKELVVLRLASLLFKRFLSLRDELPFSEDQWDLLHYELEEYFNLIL
UniProt Q9NPA3, whole entry, looked up: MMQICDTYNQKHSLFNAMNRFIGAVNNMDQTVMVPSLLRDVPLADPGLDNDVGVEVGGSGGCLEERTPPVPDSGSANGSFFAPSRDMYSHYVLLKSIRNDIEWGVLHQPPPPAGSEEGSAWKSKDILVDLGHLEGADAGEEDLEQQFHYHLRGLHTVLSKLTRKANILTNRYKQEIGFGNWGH
UniProt P39210: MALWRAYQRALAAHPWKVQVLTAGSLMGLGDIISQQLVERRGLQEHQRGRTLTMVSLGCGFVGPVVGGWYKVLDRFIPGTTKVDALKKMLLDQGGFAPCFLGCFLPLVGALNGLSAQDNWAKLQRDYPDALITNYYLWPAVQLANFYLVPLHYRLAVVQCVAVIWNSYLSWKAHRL
UniProt Q4G0A6: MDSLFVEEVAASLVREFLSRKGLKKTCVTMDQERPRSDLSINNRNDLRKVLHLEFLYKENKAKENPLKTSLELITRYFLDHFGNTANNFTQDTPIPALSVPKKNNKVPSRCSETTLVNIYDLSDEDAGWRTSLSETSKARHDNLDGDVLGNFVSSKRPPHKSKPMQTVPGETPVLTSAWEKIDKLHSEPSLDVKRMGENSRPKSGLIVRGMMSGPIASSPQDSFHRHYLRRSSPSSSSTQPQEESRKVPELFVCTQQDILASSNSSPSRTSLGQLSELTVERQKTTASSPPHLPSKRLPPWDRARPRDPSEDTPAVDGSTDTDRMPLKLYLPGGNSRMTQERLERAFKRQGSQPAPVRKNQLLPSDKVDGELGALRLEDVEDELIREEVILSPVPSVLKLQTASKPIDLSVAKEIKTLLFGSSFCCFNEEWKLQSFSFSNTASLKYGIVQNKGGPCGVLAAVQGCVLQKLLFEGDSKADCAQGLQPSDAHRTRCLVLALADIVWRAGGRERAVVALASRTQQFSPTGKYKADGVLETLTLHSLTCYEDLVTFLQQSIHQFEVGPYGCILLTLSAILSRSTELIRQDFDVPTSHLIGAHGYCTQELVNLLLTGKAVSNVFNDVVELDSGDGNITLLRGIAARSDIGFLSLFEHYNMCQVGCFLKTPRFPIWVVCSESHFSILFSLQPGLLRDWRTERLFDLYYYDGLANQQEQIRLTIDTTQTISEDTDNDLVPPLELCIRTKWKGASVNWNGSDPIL
UniProt Q8NBR6: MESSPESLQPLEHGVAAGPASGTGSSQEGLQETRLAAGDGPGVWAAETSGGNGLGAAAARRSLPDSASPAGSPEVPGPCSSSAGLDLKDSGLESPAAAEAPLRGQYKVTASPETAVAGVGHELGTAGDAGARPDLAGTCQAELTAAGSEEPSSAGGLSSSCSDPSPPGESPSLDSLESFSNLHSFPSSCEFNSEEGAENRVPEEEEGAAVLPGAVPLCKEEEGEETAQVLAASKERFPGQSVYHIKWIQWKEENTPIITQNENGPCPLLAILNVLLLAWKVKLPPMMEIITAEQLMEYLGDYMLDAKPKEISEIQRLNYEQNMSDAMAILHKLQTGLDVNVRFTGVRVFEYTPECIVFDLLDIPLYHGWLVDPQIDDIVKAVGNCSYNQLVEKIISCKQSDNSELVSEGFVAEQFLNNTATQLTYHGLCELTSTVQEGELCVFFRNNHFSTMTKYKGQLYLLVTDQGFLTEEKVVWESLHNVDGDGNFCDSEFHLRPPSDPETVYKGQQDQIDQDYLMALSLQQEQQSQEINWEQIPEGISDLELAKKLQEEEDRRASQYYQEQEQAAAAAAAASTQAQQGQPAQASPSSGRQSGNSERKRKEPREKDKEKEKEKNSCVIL
UniProt Q6NTE8: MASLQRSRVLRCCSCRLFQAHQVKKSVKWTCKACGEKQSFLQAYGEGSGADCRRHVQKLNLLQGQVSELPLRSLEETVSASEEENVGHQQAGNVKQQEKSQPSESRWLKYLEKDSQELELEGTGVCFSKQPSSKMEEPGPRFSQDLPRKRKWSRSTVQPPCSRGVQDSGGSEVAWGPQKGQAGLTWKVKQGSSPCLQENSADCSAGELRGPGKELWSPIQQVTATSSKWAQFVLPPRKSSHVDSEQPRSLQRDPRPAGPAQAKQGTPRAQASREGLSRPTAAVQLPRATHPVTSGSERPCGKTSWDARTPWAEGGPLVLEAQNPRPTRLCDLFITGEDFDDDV
UniProt O94851, whole entry, looked up: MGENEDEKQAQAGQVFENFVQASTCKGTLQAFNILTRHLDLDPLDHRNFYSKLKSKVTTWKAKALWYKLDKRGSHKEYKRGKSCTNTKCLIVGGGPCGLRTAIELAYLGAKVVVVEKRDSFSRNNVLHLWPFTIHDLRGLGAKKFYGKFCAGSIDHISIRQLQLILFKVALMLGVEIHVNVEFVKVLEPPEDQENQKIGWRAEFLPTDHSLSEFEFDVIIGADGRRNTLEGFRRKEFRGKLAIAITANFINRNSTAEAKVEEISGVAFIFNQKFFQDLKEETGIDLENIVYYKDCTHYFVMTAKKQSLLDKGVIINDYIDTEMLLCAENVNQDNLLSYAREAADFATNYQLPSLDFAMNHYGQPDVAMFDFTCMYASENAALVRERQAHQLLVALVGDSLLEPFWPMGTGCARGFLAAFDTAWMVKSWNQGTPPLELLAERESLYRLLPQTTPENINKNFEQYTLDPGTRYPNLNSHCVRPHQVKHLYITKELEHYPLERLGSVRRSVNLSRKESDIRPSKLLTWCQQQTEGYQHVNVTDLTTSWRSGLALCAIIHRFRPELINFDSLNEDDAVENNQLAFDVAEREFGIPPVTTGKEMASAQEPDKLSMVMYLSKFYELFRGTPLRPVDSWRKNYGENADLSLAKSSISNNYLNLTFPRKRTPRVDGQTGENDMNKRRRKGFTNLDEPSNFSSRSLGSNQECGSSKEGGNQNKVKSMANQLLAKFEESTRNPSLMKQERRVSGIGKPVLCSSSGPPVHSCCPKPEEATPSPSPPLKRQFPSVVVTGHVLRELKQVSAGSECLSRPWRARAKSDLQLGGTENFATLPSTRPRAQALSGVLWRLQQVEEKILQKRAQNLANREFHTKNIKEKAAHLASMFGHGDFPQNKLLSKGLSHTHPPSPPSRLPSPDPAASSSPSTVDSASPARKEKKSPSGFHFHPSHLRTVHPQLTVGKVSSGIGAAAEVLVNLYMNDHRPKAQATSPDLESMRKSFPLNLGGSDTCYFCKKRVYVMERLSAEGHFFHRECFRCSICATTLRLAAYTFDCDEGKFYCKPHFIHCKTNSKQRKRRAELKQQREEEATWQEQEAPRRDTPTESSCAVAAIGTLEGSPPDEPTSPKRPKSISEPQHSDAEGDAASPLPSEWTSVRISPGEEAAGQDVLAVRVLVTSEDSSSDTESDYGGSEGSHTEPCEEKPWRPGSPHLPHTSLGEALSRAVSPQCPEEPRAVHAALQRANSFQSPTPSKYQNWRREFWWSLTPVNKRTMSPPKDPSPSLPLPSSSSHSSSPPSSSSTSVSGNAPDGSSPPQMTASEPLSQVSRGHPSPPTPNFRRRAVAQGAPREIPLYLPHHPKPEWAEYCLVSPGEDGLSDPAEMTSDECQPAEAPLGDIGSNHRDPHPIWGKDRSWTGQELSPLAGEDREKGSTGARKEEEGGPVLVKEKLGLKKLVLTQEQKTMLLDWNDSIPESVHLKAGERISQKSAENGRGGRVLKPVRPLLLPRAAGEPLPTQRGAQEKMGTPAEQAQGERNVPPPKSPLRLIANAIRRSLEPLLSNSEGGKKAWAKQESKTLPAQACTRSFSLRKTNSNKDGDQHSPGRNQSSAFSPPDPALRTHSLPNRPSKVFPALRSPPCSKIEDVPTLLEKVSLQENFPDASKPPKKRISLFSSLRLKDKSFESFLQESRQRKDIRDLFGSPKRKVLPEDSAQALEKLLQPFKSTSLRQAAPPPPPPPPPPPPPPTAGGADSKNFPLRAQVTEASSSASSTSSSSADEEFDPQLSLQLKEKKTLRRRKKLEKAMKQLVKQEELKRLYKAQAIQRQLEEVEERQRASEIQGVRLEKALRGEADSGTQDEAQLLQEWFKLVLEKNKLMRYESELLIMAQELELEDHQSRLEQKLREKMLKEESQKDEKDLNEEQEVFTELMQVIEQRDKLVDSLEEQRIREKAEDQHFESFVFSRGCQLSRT

Experiments:
Assay in all cases: log2 fold change, soluble protein after heating vs DMSO (PISA); higher = thermal stabilisation; K562 cells, 10 uM, 30 min; active = over 0.2 and 3.5 SD of the protein, either way, in both replicates (recomputed)
[1] = compound: CON(C)C(=O)N1N=C(c2cc(F)ccc2F)S[C@@]1(CCCN)c1ccccc1 [filanesib]
Method in brief: (§1)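 Soluble protein was defined as the supernatant after 21,000xg for 90 min. It came from K562 cells at 2×10^6 cells/mL given 10 μM compound for 30 min, heated in aliquots for 3 min across 48°C-58°C, pooled, and extracted in PBS with 0.5% NP-40 at 4°C, and was quantified by TMTpro 16plex LC-MS/MS with equalised channel sums. Thermal stability against control samples, from duplicates, is reported as log2 fold change.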

[2] = compound: CS(=O)(=O)c1ccc(-c2cnc(N)c(C(=O)Nc3ccccc3)n2)cc1
Method in brief: as §1

[3] = compound: C[C@H](Nc1ncnc2nc[nH]c12)c1cc2cccc(Cl)c2c(=O)n1-c1ccccc1 [duvelisib]
Method in brief: as §1

[4] = compound: Cc1cc(SCc2sc(-c3ccc(C(F)(F)F)cc3)nc2C)ccc1OCC(=O)O
Method in brief: as §1

[5] = compound: COC1=CC=C(C=C1)CN2C=CC3=C2C=C(C=C3)C(=O)NO
Method in brief: as §1

[6] = compound: CO[C@H]1C[C@@H]2CC[C@@H](C)[C@@](O)(O2)C(=O)C(=O)N2CCCC[C@H]2C(=O)O[C@H]([C@H](C)C[C@@H]2CC[C@H](n3cnnn3)[C@H](OC)C2)CC(=O)[C@H](C)/C=C(\C)[C@@H](O)[C@@H](OC)C(=O)[C@H](C)C[C@H](C)/C=C/C=C/C=C/1C [zotarolimus]
Method in brief: as §1

[7] = compound: COc1cc(Nc2ncc3c(n2)-c2ccc(Cl)cc2C(c2c(F)cccc2OC)=NC3)ccc1C(=O)O [alisertib]
Method in brief: as §1

[8] = compound: COc1cc2nc(-c3cc(F)ccc3O)nc(N[C@@H]3CNC[C@H]3C(C)(C)O)c2cc1OC
Method in brief: as §1

[9] = compound: COc1cc2ncnc(Nc3ccc(F)c(Cl)c3)c2cc1OCCCN1CCOCC1 [gefitinib]
Method in brief: as §1

[10] = compound: COc1cccc2cc(-c3nc([C@H]4CC[C@H](C(=O)O)CC4)n4ncnc(N)c34)[nH]c12
Method in brief: as §1

[11] = compound: CS(=O)(=O)CCNCc1ccc(-c2ccc3ncnc(Nc4ccc(OCc5cccc(F)c5)c(Cl)c4)c3c2)o1 [lapatinib]
Method in brief: as §1

[12] = compound: CS(=O)(=O)N1CCN(Cc2cc3nc(-c4cccc5[nH]ncc45)nc(N4CCOCC4)c3s2)CC1 [pictilisib]
Method in brief: as §1

[13] = compound: C[C@@H](Oc1cc(-c2cnn(C3CCNCC3)c2)cnc1N)c1c(Cl)ccc(F)c1Cl [crizotinib]
Method in brief: as §1

[14] = compound: C[C@@H]1COCCN1C2=NC(=NC(=C2)C3(CC3)S(=O)(=O)C)C4=C5C=CNC5=CC=C4
Method in brief: as §1

[15] = compound: C[C@H](C1=CC=C(C=C1)C(=O)NC2=C3C=CNC3=NC=C2)N
Method in brief: as §1

[16] = compound: Cc1cc(Nc2cc(CN3CCOCC3)c3nc(C)c(Cc4ccc(Cl)cc4F)n3n2)n[nH]1 [gandotinib]
Method in brief: as §1

[17] = compound: Cc1cc(Nc2cc(N3CCN(C)CC3)nc(Sc3ccc(NC(=O)C4CC4)cc3)n2)n[nH]1 [tozasertib]
Method in brief: as §1

[18] = compound: Cc1ccc(-n2nc(C(C)(C)C)cc2NC(=O)Nc2ccc(OCCN3CCOCC3)c3ccccc23)cc1 [doramapimod]
Method in brief: as §1

[19] = compound: Cc1ccc(C(=O)N(CCCN)[C@@H](c2nc3cc(Cl)ccc3c(=O)n2Cc2ccccc2)C(C)C)cc1 [ispinesib]
Method in brief: as §1

[20] = compound: COc1cc(C(=O)O)ccc1NC(=O)[C@@H]1N[C@@H](CC(C)(C)C)[C@](C#N)(c2ccc(Cl)cc2F)[C@H]1c1cccc(Cl)c1F [idasanutlin]
Method in brief: as §1

Measured: log2 fold change

MRPL52 (UniProt Q86TS9)
inactive: [1] 0.016 | [2] -0.153 | [3] 0.041 | [4] 0.179

MRPL18 (UniProt Q9H0U6)
inactive: [5] 0 | [1] 0.153 | [6] -0.176 | [7] -0.192 | [8] 0.036 | [9] 0 | [10] -0.211 | [11] 0.141 | [12] -0.151 | [2] 0.008 | [13] 0.025 | [14] -0.219 | [15] 0.132 | [3] -0.155 | [16] 0.071 | [17] 0.089 | [4] 0.227 | [18] 0.052 | [19] -0.165

MOB3B (UniProt Q86TA1)
inactive: [5] 0.355 | [6] -0.087 | [20] -0.24 | [7] -0.001 | [8] 0.04 | [9] 0.384 | [10] -0.011 | [11] -0.033 | [12] 0.067 | [13] -0.078 | [15] 0.098 | [16] 0.039 | [18] 0

MICA (UniProt Q29983)
inactive: [1] 0.152 | [20] 0.069 | [8] 0.047 | [11] 0.001 | [12] -0.06 | [2] 0 | [16] -0.045 | [17] -0.127 | [19] 0.026

MLH1 (UniProt P40692)
inactive: [6] 0.024 | [20] 0.03 | [7] -0.171 | [8] -0.135 | [10] -0.1 | [11] 0.091 | [12] 0.083 | [14] 0.042 | [15] -0.127 | [16] -0.068 | [4] 0.094

MLLT10 (UniProt P55197)
inactive: [7] -0.011 | [8] 0.162 | [10] 0.327 | [11] 0.021 | [12] -0.155 | [14] -0.006 | [16] -0.054 | [19] 0.276

MMAA (UniProt Q8IVH4)
inactive: [1] 0 | [6] 0.073 | [20] -0.071 | [8] -0.038 | [11] -0.244 | [2] -0.072 | [14] 0.102 | [15] 0.083 | [3] -0.048 | [4] -0.143

MKRN3 (UniProt Q13064)
inactive: [5] -0.147 | [1] -0.046 | [20] -0.167 | [8] 0.094 | [9] 0.009 | [11] -0.074 | [2] -0.06 | [13] -0.023 | [14] 0.157 | [3] -0.01 | [17] -0.182 | [4] 0 | [18] 0.127 | [19] -0.028

MID1IP1 (UniProt Q9NPA3)
inactive: [5] -0.269 | [1] 0.273 | [7] 0.017 | [8] 0.071 | [9] 0.146 | [10] -0.113 | [11] 0.051 | [12] 0.207 | [2] 0.154 | [13] 0.083 | [14] 0.158 | [3] 0.023 | [16] -0.034 | [17] 0.169 | [4] 0 | [18] 0.133 | [19] 0.067

MPV17 (UniProt P39210)
inactive: [1] -0.038 | [6] 0.082 | [20] -0.103 | [7] -0.091 | [8] 0.003 | [9] 0.085 | [10] 0.03 | [11] -0.142 | [12] 0.042 | [2] 0.059 | [14] 0.27 | [15] -0.133 | [16] 0.047 | [17] 0.016 | [19] -0.015

MKKS (UniProt Q9HB66)
inactive: [1] -0.02 | [6] -0.039 | [20] 0.028 | [7] -0.079 | [9] 0.052 | [10] 0.043 | [12] 0.042 | [2] 0.009 | [14] 0.279 | [15] -0.153 | [3] -0.033 | [16] 0.052 | [17] 0.027 | [4] -0.015

MINDY4 (UniProt Q4G0A6)
inactive: [1] -0.004 | [2] 0.093 | [19] -0.019

MRAS (UniProt O14807)
inactive: [5] -0.034 | [7] 0.172 | [9] -0.002 | [10] 0.121 | [12] 0.204 | [13] 0.128 | [16] -0.17 | [18] 0

MINDY2 (UniProt Q8NBR6)
inactive: [6] 0.21 | [7] -0.566 | [10] 0.047 | [14] 0.063 | [15] 0.073 | [17] 0.075

MRNIP (UniProt Q6NTE8)
inactive: [5] -0.14 | [1] 0.033 | [7] 0.215 | [8] 0.083 | [9] -0.126 | [10] 0.117 | [11] -0.046 | [12] 0.099 | [2] 0.241 | [13] 0.1 | [14] -0.034 | [16] -0.007 | [17] 0.038 | [18] 0.05 | [19] -0.129

MICAL2 (UniProt O94851)
inactive: [5] 0.189 | [6] -0.097 | [20] 0.065 | [7] -0.012 | [10] 0.201 | [12] 0.034 | [13] 0.159 | [14] -0.166 | [15] 0.266 | [3] -0.018 | [16] 0.035 | [17] 0.103 | [4] 0.176 | [18] -0.12 | [19] -0.348

MPZL1 isoform 3 (UniProt O95297)
inactive: [6] 0.07 | [20] -0.104 | [15] -0.097 | [3] 0.289 | [17] -0.043 | [4] 0.08

2 consecutive records from above, quoted:
MRAS (UniProt O14807)
inactive: [5] -0.034 | [7] 0.172 | [9] -0.002 | [10] 0.121 | [12] 0.204 | [13] 0.128 | [16] -0.17 | [18] 0

MINDY2 (UniProt Q8NBR6)
inactive: [6] 0.21 | [7] -0.566 | [10] 0.047 | [14] 0.063 | [15] 0.073 | [17] 0.075
